Data published in PMC10520683.
These are yes or no findings as the source states them, for the method shown. In cells and extracts the contact can be indirect. Some binding calls cover weakened binding; strength is not graded here.

Protein sequences, listed by entry. Tags and fused reporters are not part of them. Residues count along the entry.
UniProt P01575, residues 22-182: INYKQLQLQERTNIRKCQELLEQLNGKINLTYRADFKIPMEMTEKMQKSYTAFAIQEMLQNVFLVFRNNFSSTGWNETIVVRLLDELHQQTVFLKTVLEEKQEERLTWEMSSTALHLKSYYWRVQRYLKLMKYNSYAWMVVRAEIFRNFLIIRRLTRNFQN
UniProt Q8WWA0, residues 19-298: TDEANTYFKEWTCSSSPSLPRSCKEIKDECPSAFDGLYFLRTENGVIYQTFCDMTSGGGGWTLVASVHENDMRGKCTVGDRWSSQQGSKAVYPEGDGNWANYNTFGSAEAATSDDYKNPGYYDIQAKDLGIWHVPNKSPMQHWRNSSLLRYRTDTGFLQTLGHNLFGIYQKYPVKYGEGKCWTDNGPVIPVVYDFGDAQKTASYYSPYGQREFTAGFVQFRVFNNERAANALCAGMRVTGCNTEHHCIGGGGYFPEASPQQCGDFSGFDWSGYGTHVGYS

Molecular target: mouse hFc-tagged IFN-β (mouse) (UniProt P01575)
Experiment: co-IP; about 500 µg of proteins of 30-fold concentrated hEP-CdM incubated with or without mouse hFc-tagged IFN-β (1:1000) at 4 °C overnight; protein G magnetic beads 4 h at 4 °C; five washes in IP buffer; eluted by boiling in loading buffer; n = 3; only the target purified

- binding: binds
Substance: intelectin 1 (ITLN1), human, secreted by hEPs (from UniProt Q8WWA0 19-298)
